The text below walks through data of paper PMC10587436, “A bacterial quorum sensing signal is a potent inhibitor of de novo pyrimidine biosynthesis in the globally abundant Emiliania huxleyi” (Frontiers in Microbiology, 2023).

This data set has as its system T1, E. huxleyi dihydroorotate dehydrogenase (EhDHODH).
T1 construct: ΔN20EhDHODH (first 20 residues truncated, start at residue 21; N-terminal eight-residue histidine tag)
The data set can be described thus: steady-state kinetics, DCIP assay (apparent Km). It counts as biochemical, Emiliania huxleyi.

A word on the Km: it is the concentration of substrate that gives half-maximal velocity. For `O=C1C[C@@H](C(=O)O)NC(=O)N1` [L-dihydroorotate], the Km came out at 170 ± 30 µM.
With `CCCCCCCCCCC1=C(C)C(=O)C(OC)=C(OC)C1=O` [decylubiquinone], the Michaelis constant (Km) was 8 ± 1 µM.
